Experimental data: PubChem BioAssay AID1671195 (Yale University, 2021)
Test: 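Knockdowns that increase or decrease uptake of fluorescent LDL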 (primary screen). Cell system: human Huh7 hepatoma cells. Reagent: siRNA pool against human genes, 18 nM. Time to read-out: about 2 to 2.5 days of knockdown, then 8 h LDL uptake. Treatment: DiI-labelled LDL at 30 µg/ml for 8 h, in lipoprotein-deficient serum medium. Read-out: 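Per-cell DiI-LDL intensity by automated imaging; well means scaled to the plate median and given as a robust z-score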. Reading the numbers: robust z-score: higher = more LDL uptake after knockdown. Active means: 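Active when two or more replicates show a robust z-score above 2 or below -2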.
Shown is a random part of about 22,000 deposited reagents. Over the whole deposit, about 1,510 (6.9%) were called active. 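Active includes knockdowns raising or lowering LDL uptake; positive z-scores mean more uptake, negative mean less.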 A number with no mark means an inactive call.

For ZNF211, the values are robust z-score, replicate 1 = -1.04; robust z-score, replicate 2 = -0.396; robust z-score, replicate 3 = -0.967.
With knock-down of MFSD1, the record shows robust z-score, replicate 1 = 0.141; robust z-score, replicate 2 = -0.39; robust z-score, replicate 3 = 0.67.
MACROD1 scored robust z-score, replicate 1 = -1.89; robust z-score, replicate 2 = 0.579; robust z-score, replicate 3 = 0.114.
KCNJ14 gave robust z-score, replicate 1 = 0.123; robust z-score, replicate 2 = -0.00479; robust z-score, replicate 3 = 0.565.
NUP160 showed robust z-score, replicate 1 = -1.27; robust z-score, replicate 2 = 1.14; robust z-score, replicate 3 = -0.465.
Knock-down of FBXO21 gave: robust z-score, replicate 1 = 0.327; robust z-score, replicate 2 = 1.99; robust z-score, replicate 3 = -0.932.
With knock-down of MSC, the record shows robust z-score, replicate 1 = 0.0564; robust z-score, replicate 2 = 1.18; robust z-score, replicate 3 = 0.372.
Depletion of LOC441546 (retired record) gave: robust z-score, replicate 1 = -1.72; robust z-score, replicate 2 = -1.86; robust z-score, replicate 3 = -1.63.
With knock-down of ITCH, the screen gave robust z-score, replicate 1 = 0.253; robust z-score, replicate 2 = -0.334; robust z-score, replicate 3 = -0.816.
Knock-down of PFKM came out at: robust z-score, replicate 1 = -1.08; robust z-score, replicate 2 = -0.72; robust z-score, replicate 3 = -1.13.
Silencing of PLA2G4A resulted in: robust z-score, replicate 1 = -0.47; robust z-score, replicate 2 = -0.427; robust z-score, replicate 3 = 0.56.
Silencing of LOC389323 (retired record) resulted in: robust z-score, replicate 1 = -0.0582; robust z-score, replicate 2 = -0.287; robust z-score, replicate 3 = 0.000806.
With knock-down of NQO2, the screen gave robust z-score, replicate 1 = -1.37; robust z-score, replicate 2 = -0.887; robust z-score, replicate 3 = -0.727.
With knock-down of RASL10B, the record shows robust z-score, replicate 1 = 0.265; robust z-score, replicate 2 = -0.824; robust z-score, replicate 3 = 1.07.
Knock-down of UBTFL7 resulted in: robust z-score, replicate 1 = 0.512; robust z-score, replicate 2 = 1.01; robust z-score, replicate 3 = -0.717.
ZNF133 showed robust z-score, replicate 1 = 0.927; robust z-score, replicate 2 = 1.82; robust z-score, replicate 3 = 1.17.
Against NEUROG1, the values are robust z-score, replicate 1 = 0.142; robust z-score, replicate 2 = 0.406; robust z-score, replicate 3 = 1.18.
LOC389390 (retired record) scored robust z-score, replicate 1 = 0.719; robust z-score, replicate 2 = 0.243; robust z-score, replicate 3 = 0.8.
Against STUM, the values are robust z-score, replicate 1 = 0.747; robust z-score, replicate 2 = 0.456; robust z-score, replicate 3 = 0.412.
RBM19 showed robust z-score, replicate 1 = -1.72; robust z-score, replicate 2 = -2.35; robust z-score, replicate 3 = -1.52.
Against HAS1, the values are robust z-score, replicate 1 = -0.246; robust z-score, replicate 2 = -0.747; robust z-score, replicate 3 = -2.65.
Depletion of LOC442368 (retired record) resulted in: robust z-score, replicate 1 = -2.46 (active); robust z-score, replicate 2 = -2.83; robust z-score, replicate 3 = -2.18.
POPDC2 scored robust z-score, replicate 1 = -0.603; robust z-score, replicate 2 = -0.323; robust z-score, replicate 3 = -0.553.
With knock-down of SRGN, the screen gave robust z-score, replicate 1 = -0.955; robust z-score, replicate 2 = 1.26; robust z-score, replicate 3 = -0.776.

Only “robust z-score, replicate 3”, for 4 of the entries above:
KCNJ14: 0.565
NUP160: -0.465
FBXO21: -0.932
MSC: 0.372
